From paper PMC6530869 come the findings set out here.

No constants are given. Whether binding was seen depends on the method and setting. Some binding calls cover weakened binding; strength is not graded here. Where a sequence is shown, tags or fusion partners need not be part of it.

The assay has as its target LovK (fusion to the T25 or T18c fragment of adenylate cyclase) (Caulobacter crescentus) (UniProt Q9ABE3). Kind of assay: two-hybrid; bacterial two-hybrid in E. coli BTH101; kinases fused to the C-terminus of the T25 and T18c fragments of adenylate cyclase; colour of spots on LB agar with X-gal and 0.5 mM IPTG after 36 hours at 30°C.

B1: LovK (fusion to the T25 or T18c fragment of adenylate cyclase) (protein, UniProt Q9ABE3 1-368)
chain: MEDYSESRRAGERLAAGHGVDDPFAAAISATRMAMIVADATQPDIPIIFANDAFLRLTGYARDEVIGRNCRFLQGPDTDPKAIQAVRDALAAGEDVAVDLLNYRKDGSPFWNALNMSPVRNDAGQLVYFFGSQVDVTDKKVVELRARDHSDGLQQMVEERTRELTEALKQKTALLHEVDHRVKNNLQLISSLLLLQNRRVPDPAVKASLRGMLGRVNAIATVHRRLFQSEDVERFDVSAFIRDMVADLMGSAMRDDIRVELDLERVEIPAAKAAPLALVVNELLTNALRHGFPEGRGGRIFVGLSRLNGDFRIEITDDGVGQDRETRASGFGLTIVQLLCQQLKAKWETTDAEPGTRVVVLLPINGTQ
For B1, the binding entry was “binds”.
